These are yes or no findings as the source states them, for the method shown. Binding seen in cells or lysates may run through a third protein. Some entries that bind do so weakly or less than the wild type.
Molecular target: T1, Numb, endogenous in human podocytes (human (endogenous in human podocytes)) (UniProt P49757)
T1 sequence: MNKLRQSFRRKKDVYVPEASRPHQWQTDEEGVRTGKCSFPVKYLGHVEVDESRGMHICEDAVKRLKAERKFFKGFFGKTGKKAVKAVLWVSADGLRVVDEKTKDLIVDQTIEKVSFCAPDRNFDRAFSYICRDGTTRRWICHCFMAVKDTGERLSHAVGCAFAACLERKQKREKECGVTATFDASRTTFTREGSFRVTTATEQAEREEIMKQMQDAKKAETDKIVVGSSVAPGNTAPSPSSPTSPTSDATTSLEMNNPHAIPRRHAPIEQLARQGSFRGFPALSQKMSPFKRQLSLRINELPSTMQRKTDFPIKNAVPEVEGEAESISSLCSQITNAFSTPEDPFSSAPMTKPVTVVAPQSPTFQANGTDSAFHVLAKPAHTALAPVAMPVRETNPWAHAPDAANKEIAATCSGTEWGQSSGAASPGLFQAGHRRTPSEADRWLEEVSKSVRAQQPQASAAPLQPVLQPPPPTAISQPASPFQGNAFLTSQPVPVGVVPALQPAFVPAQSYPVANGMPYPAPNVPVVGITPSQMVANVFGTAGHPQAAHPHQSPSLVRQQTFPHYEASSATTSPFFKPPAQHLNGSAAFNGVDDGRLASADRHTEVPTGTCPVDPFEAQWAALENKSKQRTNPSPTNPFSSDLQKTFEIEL
Test: co-IP; whole cell lysates (RIPA, 1 mg protein) of human podocytes, control or treated with high glucose; immunoprecipitated with anti-Numb or IgG and Protein A/G PLUS-Agarose, 4 °C; blotted with anti-MAD2B and anti-Numb

Amino acid sequences for entries named in this document (tags omitted).
UniProt Q9UI95: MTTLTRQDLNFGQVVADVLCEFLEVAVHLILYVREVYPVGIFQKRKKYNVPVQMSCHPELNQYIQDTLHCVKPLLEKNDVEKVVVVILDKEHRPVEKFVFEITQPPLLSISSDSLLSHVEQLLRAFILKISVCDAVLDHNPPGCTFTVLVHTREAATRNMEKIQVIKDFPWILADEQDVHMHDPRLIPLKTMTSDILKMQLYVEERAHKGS

For “MAD2B, endogenous in human podocytes (from UniProt Q9UI95 1-211)”, which binding is on record?
Its binding is “binds”.

From PMC8935242
